Common to all, as to experiment: cells
One assay has as its system DU-145 cells. To be noted: Homo sapiens, DU-145, 48 h, read-out: IC50 (μM) in DU-145 cells.
The next assay concerns PC-3 cells. The conditions noted are these: Homo sapiens, PC-3, 48 h, read-out: IC50 (μM) in PC-3 cells.
Another assay relates to SU/SR cells. To be noted: Homo sapiens, 48 h, read-out: IC50 value.

Take `CNC(=O)c1ccc(N2C(=S)N(c3ccc(C#N)c(C(F)(F)F)c3)C(=O)C2(C)C)cc1F` [Enzalutamide]: the IC50 – broadly, the point on the concentration scale where inhibition reaches its midpoint – is 47.2 µM with DU-145 cells and 88.1 µM with PC-3 cells.

On to `Cc1ccc(NC(=O)c2ccc(CN3CCN(C)CC3)cc2)cc1Nc1nccc(-c2cccnc2)n1` [imatinib, reference compound], for which the IC50 in the assay with SU/SR cells is 14.8 µM.

These data come from patent US11235001B2, “RUNX inhibitor” (KYOTO UNIVERSITY, priority 2016, dated 2022).
